What all share (assay): co-IP; both proteins co-expressed in HEK293T cells; lysate in 1% Triton X-100, 50 mM Tris-HCl pH 7.5, 150 mM NaCl; Dynabeads magnetic beads; Western blotting; which partner was precipitated is not told
For assay [1], the target named is T1, constitutively negative (CN; GDP-bound) form of RAB2A, S20N (UniProt P53994).
T1 sequence: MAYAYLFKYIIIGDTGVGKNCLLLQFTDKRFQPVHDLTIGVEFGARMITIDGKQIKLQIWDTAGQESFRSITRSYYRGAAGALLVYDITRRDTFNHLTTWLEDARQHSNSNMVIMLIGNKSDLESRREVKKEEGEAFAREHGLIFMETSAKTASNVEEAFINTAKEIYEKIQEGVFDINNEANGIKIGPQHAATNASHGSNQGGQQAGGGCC

For assay [2], the target named is T2, constitutively active (CA; GTP-bound) form of RAB2B, Q65L (UniProt P59279).
T2 sequence: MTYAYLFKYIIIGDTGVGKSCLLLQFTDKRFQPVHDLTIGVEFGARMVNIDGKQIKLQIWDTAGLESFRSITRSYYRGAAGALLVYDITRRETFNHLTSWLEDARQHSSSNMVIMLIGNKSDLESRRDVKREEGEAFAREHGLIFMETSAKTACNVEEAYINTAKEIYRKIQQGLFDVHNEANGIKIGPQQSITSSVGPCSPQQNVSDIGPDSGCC

Assay [3] deals with T3, constitutively negative (CN; GDP-bound) form of RAB2B, S20N (UniProt P59279).
T3 sequence: T2 sequence with S20N, L65Q

Assay [4] concerns the target T4, constitutively active (CA; GTP-bound) form of RAB2A, Q65L (UniProt P53994).
T4 sequence: T1 sequence with N20S, Q65L

Substitutions are numbered along the chain they refer to. No constants are given. Whether binding was seen depends on the method and setting. In cells and extracts the contact can be indirect. Binding can be weak; no strength is given.

In the case of FLAG-tagged GARIN5B (mouse), the binding result in assay [1] was “binds weakly”; in assay [2], “binds”; in assay [3], “binds”; in assay [4], “binds”.

(Values after paper PMC11236154.)
